Laboratory results reported in paper PMC5592675.
These are yes or no findings as the source states them, for the method shown. In cells and extracts the contact can be indirect. A result given as binding can be weak or reduced; the word gives no strength. Sequences can lack the tags named with a protein.

Chains of the proteins cited; added tags and fusions are not shown. Lines headed by an entry give the natural chain unless they say otherwise; changes in a name come on top.
UniProt Q9JKF1: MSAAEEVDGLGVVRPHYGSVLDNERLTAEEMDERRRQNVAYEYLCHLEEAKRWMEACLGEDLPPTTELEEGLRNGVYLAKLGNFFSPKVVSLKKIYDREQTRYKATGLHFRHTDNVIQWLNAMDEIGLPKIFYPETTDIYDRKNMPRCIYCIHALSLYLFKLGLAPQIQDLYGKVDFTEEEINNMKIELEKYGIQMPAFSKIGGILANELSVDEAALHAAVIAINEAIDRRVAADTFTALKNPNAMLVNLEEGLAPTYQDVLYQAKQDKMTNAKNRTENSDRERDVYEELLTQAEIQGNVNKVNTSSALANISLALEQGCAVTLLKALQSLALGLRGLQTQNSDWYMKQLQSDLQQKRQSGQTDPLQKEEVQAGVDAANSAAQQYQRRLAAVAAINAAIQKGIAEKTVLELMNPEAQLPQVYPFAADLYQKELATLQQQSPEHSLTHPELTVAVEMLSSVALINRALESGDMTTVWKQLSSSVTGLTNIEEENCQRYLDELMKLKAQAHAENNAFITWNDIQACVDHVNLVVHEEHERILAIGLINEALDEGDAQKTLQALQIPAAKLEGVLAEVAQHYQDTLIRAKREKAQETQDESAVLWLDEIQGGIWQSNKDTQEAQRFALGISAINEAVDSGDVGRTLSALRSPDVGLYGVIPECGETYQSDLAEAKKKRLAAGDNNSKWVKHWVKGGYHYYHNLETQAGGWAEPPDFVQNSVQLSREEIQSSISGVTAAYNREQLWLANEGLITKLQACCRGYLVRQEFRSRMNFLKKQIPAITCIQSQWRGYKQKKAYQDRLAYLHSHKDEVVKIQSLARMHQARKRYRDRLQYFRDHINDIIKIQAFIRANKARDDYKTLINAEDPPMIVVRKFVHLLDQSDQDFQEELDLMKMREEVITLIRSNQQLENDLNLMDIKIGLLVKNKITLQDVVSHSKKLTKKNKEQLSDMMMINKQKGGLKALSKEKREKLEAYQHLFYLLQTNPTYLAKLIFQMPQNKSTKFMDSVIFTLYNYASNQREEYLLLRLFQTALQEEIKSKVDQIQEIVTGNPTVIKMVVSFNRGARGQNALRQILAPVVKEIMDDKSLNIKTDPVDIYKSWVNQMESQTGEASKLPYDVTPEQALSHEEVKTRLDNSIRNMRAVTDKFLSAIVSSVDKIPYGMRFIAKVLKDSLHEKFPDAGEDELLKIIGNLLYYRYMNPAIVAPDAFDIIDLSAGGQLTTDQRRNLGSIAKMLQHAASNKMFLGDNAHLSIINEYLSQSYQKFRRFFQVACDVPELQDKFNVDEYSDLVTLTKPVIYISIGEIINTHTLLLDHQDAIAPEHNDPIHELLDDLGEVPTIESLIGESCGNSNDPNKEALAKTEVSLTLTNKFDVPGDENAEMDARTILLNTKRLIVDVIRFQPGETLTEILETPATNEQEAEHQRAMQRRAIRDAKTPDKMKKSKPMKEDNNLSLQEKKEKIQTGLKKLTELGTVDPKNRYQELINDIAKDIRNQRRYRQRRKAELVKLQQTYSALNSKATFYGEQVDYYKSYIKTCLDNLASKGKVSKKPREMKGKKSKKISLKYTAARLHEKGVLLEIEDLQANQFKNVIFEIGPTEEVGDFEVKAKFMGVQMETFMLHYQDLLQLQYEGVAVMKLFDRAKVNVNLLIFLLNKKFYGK

Target: T1, Myc-tagged LGR5-WT (leucine-rich repeat-containing G protein-coupled receptor 5) (UniProt O75473)
T1 sequence: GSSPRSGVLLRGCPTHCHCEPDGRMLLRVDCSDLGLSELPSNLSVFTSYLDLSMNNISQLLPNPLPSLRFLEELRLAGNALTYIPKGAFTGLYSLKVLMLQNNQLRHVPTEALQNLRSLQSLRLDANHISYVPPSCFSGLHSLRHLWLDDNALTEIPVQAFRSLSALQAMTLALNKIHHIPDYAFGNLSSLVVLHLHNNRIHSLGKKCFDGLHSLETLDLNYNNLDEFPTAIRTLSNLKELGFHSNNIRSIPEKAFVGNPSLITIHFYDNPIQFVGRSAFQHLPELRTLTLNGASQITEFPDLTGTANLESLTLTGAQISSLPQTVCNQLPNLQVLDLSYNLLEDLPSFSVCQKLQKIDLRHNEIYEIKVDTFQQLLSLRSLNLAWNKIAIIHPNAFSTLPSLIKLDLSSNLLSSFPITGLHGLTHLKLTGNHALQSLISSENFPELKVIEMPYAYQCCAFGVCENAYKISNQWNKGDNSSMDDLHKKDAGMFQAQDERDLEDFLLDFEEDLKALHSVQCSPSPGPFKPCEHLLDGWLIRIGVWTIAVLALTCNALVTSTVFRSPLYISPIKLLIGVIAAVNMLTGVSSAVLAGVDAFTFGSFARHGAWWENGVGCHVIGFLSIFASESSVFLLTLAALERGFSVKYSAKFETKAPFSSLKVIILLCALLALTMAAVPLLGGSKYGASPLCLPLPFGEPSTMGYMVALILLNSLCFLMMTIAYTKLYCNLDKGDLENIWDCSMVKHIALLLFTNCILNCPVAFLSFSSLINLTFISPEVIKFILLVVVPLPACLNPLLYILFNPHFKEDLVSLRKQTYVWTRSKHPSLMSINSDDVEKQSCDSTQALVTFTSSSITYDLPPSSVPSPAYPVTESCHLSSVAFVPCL
Assay: co-IP; recombinant overexpression in HEK293T cells; whole-cell lysates incubated ~3-4 h at 4 °C with antibody magnetic beads (anti-Myc, anti-FLAG listed); Western blot

| Substance | binding |
| --- | --- |
| FLAG-IQGAP1 GRD domain (RasGAP-related domain) (mouse) (domain or fragment) | binds weakly |
| FLAG-IQGAP1 variant lacking the GRD domain (ΔGRD) (from UniProt Q9JKF1) | binds |
